Test results reported in publication PMC12518634, “The noncanonical function of liver-type phosphofructokinase potentiates the efficacy of HDAC inhibitors in cancer” (Signal Transduction and Targeted Therapy, 2025).
Results are given in words; binding and its absence hold for the method and conditions named. For part of these data: In cells and extracts the contact can be indirect. Some entries that bind do so weakly or less than the wild type. Where a sequence is shown, tags or fusion partners need not be part of it.

Chains of the proteins cited; added tags and fusions are not shown.
UniProt Q13547: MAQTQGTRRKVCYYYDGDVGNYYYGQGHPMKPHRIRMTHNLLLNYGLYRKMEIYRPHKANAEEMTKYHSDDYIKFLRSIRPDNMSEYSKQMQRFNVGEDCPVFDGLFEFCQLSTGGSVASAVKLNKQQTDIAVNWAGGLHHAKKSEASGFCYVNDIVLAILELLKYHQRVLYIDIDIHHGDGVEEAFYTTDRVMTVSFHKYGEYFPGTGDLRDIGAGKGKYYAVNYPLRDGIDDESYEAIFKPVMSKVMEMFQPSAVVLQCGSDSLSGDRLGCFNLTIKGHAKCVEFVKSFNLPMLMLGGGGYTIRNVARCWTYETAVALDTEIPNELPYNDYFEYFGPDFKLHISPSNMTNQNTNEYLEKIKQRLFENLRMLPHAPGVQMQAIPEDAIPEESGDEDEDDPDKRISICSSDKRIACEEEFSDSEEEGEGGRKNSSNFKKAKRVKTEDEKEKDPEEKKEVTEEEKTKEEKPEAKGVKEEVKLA

Legend:
[1] = target: T1, GST-PFKL, recombinant (human) (UniProt P17858); test: pull-down; GST-PFKL on glutathione beads (1 h, 4 °C), His-HDAC protein added (1.5 h, 4 °C), five washes, glutathione elution; Coomassie staining and immunoblot; both purified
T1 sequence: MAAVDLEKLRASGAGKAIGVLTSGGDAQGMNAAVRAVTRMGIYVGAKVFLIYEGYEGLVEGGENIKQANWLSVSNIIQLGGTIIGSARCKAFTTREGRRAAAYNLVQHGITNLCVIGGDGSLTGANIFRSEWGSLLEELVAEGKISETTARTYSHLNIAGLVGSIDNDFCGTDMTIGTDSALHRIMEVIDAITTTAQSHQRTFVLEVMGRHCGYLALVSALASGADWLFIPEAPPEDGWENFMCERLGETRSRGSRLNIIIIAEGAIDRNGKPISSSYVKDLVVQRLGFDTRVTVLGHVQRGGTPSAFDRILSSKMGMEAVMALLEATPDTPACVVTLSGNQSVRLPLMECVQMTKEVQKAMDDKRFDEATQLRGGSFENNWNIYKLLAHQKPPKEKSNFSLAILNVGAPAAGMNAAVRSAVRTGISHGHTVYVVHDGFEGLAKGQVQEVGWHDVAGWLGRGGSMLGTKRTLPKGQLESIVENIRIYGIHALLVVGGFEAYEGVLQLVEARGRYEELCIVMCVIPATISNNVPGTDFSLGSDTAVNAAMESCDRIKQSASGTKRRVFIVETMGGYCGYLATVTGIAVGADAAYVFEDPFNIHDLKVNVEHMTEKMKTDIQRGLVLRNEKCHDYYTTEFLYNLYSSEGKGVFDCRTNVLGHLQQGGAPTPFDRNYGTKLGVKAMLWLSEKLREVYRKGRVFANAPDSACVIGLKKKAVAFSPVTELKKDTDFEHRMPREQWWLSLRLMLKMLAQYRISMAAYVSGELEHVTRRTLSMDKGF

[2] = target: HDAC1 (endogenous or tagged not stated; immunoprecipitates for mass spectrometry and co-IP with the PFK isoforms) (human) (UniProt Q13547); test: co-IP; co-IP of PFKL, PFKM or PFKP with HDAC1
[3] = target: T2, PFKL (endogenous or tagged not stated; immunoprecipitates for mass spectrometry, co-IP of the PFK isoforms, purified PFKL added to HDAC1) (human) (UniProt P17858); test: co-IP; co-IP of the three PFK isoforms with each other in TFK cells
T2 sequence: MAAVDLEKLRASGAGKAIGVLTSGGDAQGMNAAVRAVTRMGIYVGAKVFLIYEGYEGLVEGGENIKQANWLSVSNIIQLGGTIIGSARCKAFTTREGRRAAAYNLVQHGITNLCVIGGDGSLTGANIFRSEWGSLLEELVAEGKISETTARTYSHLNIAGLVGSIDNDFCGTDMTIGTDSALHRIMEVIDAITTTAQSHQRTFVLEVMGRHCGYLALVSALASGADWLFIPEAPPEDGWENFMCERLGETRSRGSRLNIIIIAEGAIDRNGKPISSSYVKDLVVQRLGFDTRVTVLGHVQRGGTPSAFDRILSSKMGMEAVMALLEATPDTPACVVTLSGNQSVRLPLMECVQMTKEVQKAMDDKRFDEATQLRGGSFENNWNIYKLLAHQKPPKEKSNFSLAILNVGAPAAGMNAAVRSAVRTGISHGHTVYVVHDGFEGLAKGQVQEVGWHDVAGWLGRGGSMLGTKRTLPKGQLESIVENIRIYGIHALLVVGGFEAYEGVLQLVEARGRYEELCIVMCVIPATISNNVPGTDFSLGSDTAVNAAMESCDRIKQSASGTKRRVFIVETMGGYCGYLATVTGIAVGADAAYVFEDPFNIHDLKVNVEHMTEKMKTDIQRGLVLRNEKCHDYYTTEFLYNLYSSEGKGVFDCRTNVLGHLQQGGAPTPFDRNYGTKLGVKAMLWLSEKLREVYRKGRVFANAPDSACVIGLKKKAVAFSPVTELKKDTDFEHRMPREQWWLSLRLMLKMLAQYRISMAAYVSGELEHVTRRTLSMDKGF

Binder	binding [1]	binding [2]	binding [3]
His-HDAC8, recombinant (enzyme, UniProt Q9BY41 1-377) MEEPEEPADSGQSLVPVYIYSPEYVSMCDSLAKIPKRASMVHSLIEAYALHKQMRIVKPKVASMEEMATFHTDAYLQHLQKVSQEGDDDHPDSIEYGLGYDCPATEGIFDYAAAIGGATITAAQCLIDGMCKVAINWSGGWHHAKKDEASGFCYLNDAVLGILRLRRKFERILYVDLDLHHGDGVEDAFSFTSKVMTVSLHKFSPGFFPGTGDVSDVGLGKGRYYSVNVPIQDGIQDEKYYQICESVLKEVYQAFNPKAVVLQLGADTIAGDPMCSFNMTPVGIGKCLKYILQWQLATLILGGGGYNLANTARCWTYLTGVILGKTLSSEIPDHEFFTAYGPDYVLEITPSCRPDRNEPHRIQQILNYIKGNLKHVV	binds		
PFKM (muscle-type phosphofructokinase) (enzyme, UniProt P08237 1-780) MTHEEHHAAKTLGIGKAIAVLTSGGDAQGMNAAVRAVVRVGIFTGARVFFVHEGYQGLVDGGDHIKEATWESVSMMLQLGGTVIGSARCKDFREREGRLRAAYNLVKRGITNLCVIGGDGSLTGADTFRSEWSDLLSDLQKAGKITDEEATKSSYLNIVGLVGSIDNDFCGTDMTIGTDSALHRIMEIVDAITTTAQSHQRTFVLEVMGRHCGYLALVTSLSCGADWVFIPECPPDDDWEEHLCRRLSETRTRGSRLNIIIVAEGAIDKNGKPITSEDIKNLVVKRLGYDTRVTVLGHVQRGGTPSAFDRILGSRMGVEAVMALLEGTPDTPACVVSLSGNQAVRLPLMECVQVTKDVTKAMDEKKFDEALKLRGRSFMNNWEVYKLLAHVRPPVSKSGSHTVAVMNVGAPAAGMNAAVRSTVRIGLIQGNRVLVVHDGFEGLAKGQIEEAGWSYVGGWTGQGGSKLGTKRTLPKKSFEQISANITKFNIQGLVIIGGFEAYTGGLELMEGRKQFDELCIPFVVIPATVSNNVPGSDFSVGADTALNTICTTCDRIKQSAAGTKRRVFIIETMGGYCGYLATMAGLAAGADAAYIFEEPFTIRDLQANVEHLVQKMKTTVKRGLVLRNEKCNENYTTDFIFNLYSEEGKGIFDSRKNVLGHMQQGGSPTPFDRNFATKMGAKAMNWMSGKIKESYRNGRIFANTPDSGCVLGMRKRALVFQPVAELKDQTDFEHRIPKEQWWLKLRPILKILAKYEIDLDTSDHAHLEHITRKRSGEAAV		no binding	binds weakly
PFKL (endogenous or tagged not stated; immunoprecipitates for mass spectrometry, co-IP of the PFK isoforms, purified PFKL added to HDAC1) (enzyme, UniProt P17858 1-780) MAAVDLEKLRASGAGKAIGVLTSGGDAQGMNAAVRAVTRMGIYVGAKVFLIYEGYEGLVEGGENIKQANWLSVSNIIQLGGTIIGSARCKAFTTREGRRAAAYNLVQHGITNLCVIGGDGSLTGANIFRSEWGSLLEELVAEGKISETTARTYSHLNIAGLVGSIDNDFCGTDMTIGTDSALHRIMEVIDAITTTAQSHQRTFVLEVMGRHCGYLALVSALASGADWLFIPEAPPEDGWENFMCERLGETRSRGSRLNIIIIAEGAIDRNGKPISSSYVKDLVVQRLGFDTRVTVLGHVQRGGTPSAFDRILSSKMGMEAVMALLEATPDTPACVVTLSGNQSVRLPLMECVQMTKEVQKAMDDKRFDEATQLRGGSFENNWNIYKLLAHQKPPKEKSNFSLAILNVGAPAAGMNAAVRSAVRTGISHGHTVYVVHDGFEGLAKGQVQEVGWHDVAGWLGRGGSMLGTKRTLPKGQLESIVENIRIYGIHALLVVGGFEAYEGVLQLVEARGRYEELCIVMCVIPATISNNVPGTDFSLGSDTAVNAAMESCDRIKQSASGTKRRVFIVETMGGYCGYLATVTGIAVGADAAYVFEDPFNIHDLKVNVEHMTEKMKTDIQRGLVLRNEKCHDYYTTEFLYNLYSSEGKGVFDCRTNVLGHLQQGGAPTPFDRNYGTKLGVKAMLWLSEKLREVYRKGRVFANAPDSACVIGLKKKAVAFSPVTELKKDTDFEHRMPREQWWLSLRLMLKMLAQYRISMAAYVSGELEHVTRRTLSMDKGF		binds	
PFKP (platelet-type phosphofructokinase) (enzyme, UniProt Q01813 1-784) MDADDSRAPKGSLRKFLEHLSGAGKAIGVLTSGGDAQGMNAAVRAVVRMGIYVGAKVYFIYEGYQGMVDGGSNIAEADWESVSSILQVGGTIIGSARCQAFRTREGRLKAACNLLQRGITNLCVIGGDGSLTGANLFRKEWSGLLEELARNGQIDKEAVQKYAYLNVVGMVGSIDNDFCGTDMTIGTDSALHRIIEVVDAIMTTAQSHQRTFVLEVMGRHCGYLALVSALACGADWVFLPESPPEEGWEEQMCVKLSENRARKKRLNIIIVAEGAIDTQNKPITSEKIKELVVTQLGYDTRVTILGHVQRGGTPSAFDRILASRMGVEAVIALLEATPDTPACVVSLNGNHAVRLPLMECVQMTQDVQKAMDERRFQDAVRLRGRSFAGNLNTYKRLAIKLPDDQIPKTNCNVAVINVGAPAAGMNAAVRSAVRVGIADGHRMLAIYDGFDGFAKGQIKEIGWTDVGGWTGQGGSILGTKRVLPGKYLEEIATQMRTHSINALLIIGGFEAYLGLLELSAAREKHEEFCVPMVMVPATVSNNVPGSDFSIGADTALNTITDTCDRIKQSASGTKRRVFIIETMGGYCGYLANMGGLAAGADAAYIFEEPFDIRDLQSNVEHLTEKMKTTIQRGLVLRNESCSENYTTDFIYQLYSEEGKGVFDCRKNVLGHMQQGGAPSPFDRNFGTKISARAMEWITAKLKEARGRGKKFTTDDSICVLGISKRNVIFQPVAELKKQTDFEHRIPKEQWWLKLRPLMKILAKYKASYDVSDSGQLEHVQPWSV		no binding	no binding
